Assay results reported in patent US10934439B2, “Additives for coating compositions and related methods” (Massachusetts Institute of Technology, priority 2017, dated 2021).

Experiments:
[1] = Potentiodynamic polarization (Tafel tests) of galvanized steel in 3.5% NaCl with additives; conditions: 25° C
Source text: The electrochemical open-to-air cell (PTC1™ Paint Test Cell, Gamry Instruments, Warminster, Pa.) was utilized for the potentiodynamic polarization (Tafel tests) and electrochemical impedance spectroscopy experiments. The electrochemical cell was composed of working electrode made of galvanized steel (zinc-galvanized sheets of type B carbon steel, ASTM A653, total thickness 0.305 mm, working area 2.2 cm^2 or 15.2 cm^2, McMaster Carr Supply Co., Robbinsvill, N.J.), reference Ag/AgCl electrode, and Pt wire auxiliary electrode (BASK) Corp., West Lafayette, Ind.). Prior to the immersion in the electrolyte (3.5% NaCl, pH adjusted to 5.25-5.3, 40 mL), the working electrodes were washed by acetone, ethanol, dried by nitrogen flow and polished with P1200 grit.^24 The working electrode was immersed into electrolyte containing the tested compound at a given concentration with desired pH at 25° C. for 60 min prior to each measurement. […] The carbon steel used herein was coated with the average minimum coating thickness per ASTM A653 being 2.0 mils (0.0508 mm) per surface. Tafel tests (ASTM GS) were conducted using a Parstat PMC-2000 multichannel potentiostat equipped with Versa Studio 2.50.3 software (Princeton Applied Research, Oak Ridge, Tenn.). Tafel tests were modeled with a ZSIMPWIN™ software for complex nonlinear least square analyses fitting the circuit models of the electrode interface to the Nyquist amplitude of 10 mV at the open circuit potential in the frequency range of 100 kHz to 0.2 Hz. Parameters for Tafel tests were as follows: initial potential, −1.25 V (vs reference); final potential, −0.45 V; scan properties: step height, 0.5 mV, step time, 2 s. In a series of measurements with the corrosion inhibiting additives, a range of the additive concentrations was studied and the scan range was set from 150 mV below the open circuit voltage (OCV) to 200 mV more positive than the OCV, with three measurements for each condition. The range in these measurements was limited in order to minimize the cathodic polarization causing local pH changes.
In the vicinity of Ecorr both currents are present in the specimen, but experimentally it is possible to measure only the net current. The net current has a single measurable polarity, either positive or negative. At Ecorr the net measured current is exactly zero. The corrosion current (icorr) is expressed as (for definitions, see FIG. 13):
[formula] where E.W. is the equivalent weight of the corroding species, g. In this case, the corroding species is Zn, so E.W.=32.7 g. Icorr, is the corrosion current density in μA/cm^2, and d is the density of the corroding species. Density of zinc is 7.140 g/cm^3.
From the icorr values, inhibitor efficiencies (IE, %) were calculated as (equation (1)): […]

[2] = Gel time of epoxy-amine curing by oscillatory shear rheometry; conditions: 5 wt % loading; 60-100° C; without additives 39.2 kJ/mol
[3] = DSC of benzoxazine resin curing polymerization; conditions: for exotherm peak maxima: 10 mol % additive, 10° C/min (FIG. 24), without additives 220° C; for apparent activation energy of benzoxazine polymerization: 10 mol % loading, monomer alone 88.6 kJ/mol

| Molecule | −Ecorr (corrosion potential) ([1]; pH 5.3, [Mg2+] 71.8, [Ac−] 144, [TDPA] 0 meq/L) [V] | −Ecorr (corrosion potential) ([1]; pH 5.6, additive 10 mg/mL) [V] | −Ecorr (corrosion potential) ([1]; pH 2.1, [TDPA] 94.8 meq/L) [V] | −Ecorr (corrosion potential) ([1]; pH 5.3, [TDPA] 47.4 meq/L) [V] | −Ecorr (corrosion potential) ([1]; pH 5.3, [TDPA] 94.8 meq/L) [V] | −Ecorr (corrosion potential) ([1]; pH 5.3, [Mg2+] 9.93, [Ac−] 9.93, [TDPA] 15.9 meq/L) [V] | −Ecorr (corrosion potential) ([1]; pH 5.3, [Mg2+] 41.9, [Ac−] 41.9, [TDPA] 67.1 meq/L) [V] | −Ecorr (corrosion potential) ([1]; pH 5.3, [Mg2+] 62.9, [Ac−] 62.9, [TDPA] 101 meq/L) [V] | apparent activation energy of curing [2] [kcal/mol] | exotherm peak maxima [3] [°C] | apparent activation energy of benzoxazine polymerization [3] [kcal/mol] | lowering of the onset of curing reactions ([3]; MgAcTDPA 12 wt %, 15° C/min (FIG. 23)) |
| --- | --- | --- | --- | --- | --- | --- | --- | --- | --- | --- | --- | --- |
| CC(=O)[O-].CC(=O)[O-].O.O.O.O.[Mg+2] [MgAc2, magnesium acetate tetrahydrate, reference compound] | 0.903 | 1.059 |  |  |  |  |  |  |  |  |  |  |
| O=C(O)CCSCCC(=O)O [TDPA, 3,3′-thiodipropionic acid, reference compound] |  | 1.076 | 1.042 | 1.046 | 1.049 |  |  |  |  |  |  |  |
| magnesium acetate thiodipropionate [MgAcTDPA] |  | 1.067 |  |  |  | 1.079 | 1.025 | 1.018 | 7 | 204 | 16.5 | ca. 46 °C |
| magnesium thiodipropionate [MgTDPA1:1] |  |  |  |  |  |  |  |  | 6.64 | 178 | 15.2 |  |
